# Test results published in patent US20210355229A1 (JIANGSU HENGRUI MEDICINE, published 2021).
# No constants are given. Whether binding was seen depends on the method and setting. Some entries that bind do so weakly or less than the wild type. Sequences can lack the tags named with a protein.
# T1: human OX40-FC-biotin (human OX40 recombinant protein with Fc tag, Acro Biosystems OX40-H5255, labeled with biotin) (human) (UniProt P43489)
# T1 sequence (labeled with biotin (site not stated), looked up): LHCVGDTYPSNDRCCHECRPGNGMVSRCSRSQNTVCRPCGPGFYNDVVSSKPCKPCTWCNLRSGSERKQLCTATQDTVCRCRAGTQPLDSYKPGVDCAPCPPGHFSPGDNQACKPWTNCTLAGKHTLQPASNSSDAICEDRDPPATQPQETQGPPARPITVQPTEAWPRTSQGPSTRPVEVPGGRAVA
# Target: T1, human OX40-FC-biotin (human OX40 recombinant protein with Fc tag, Acro Biosystems OX40-H5255, labeled with biotin) (human)
# Assay: capture ELISA, biotin-OX40-Fc
row,binding,Binder
1,binds,"humanized antibody hu4B5-V3 (antibody, human IgG1, V domains shown) VH: QVQLQESGPGLVKPSETLSLTCTVSGFSLTSYGLHWIRQPPGKGLEWIGVIWSGGSTDYNAAFISRVTISKEDSKSQVSLKLSSVTAADTAVYYCAREEYDVWGQGTTVTVSS VL: DIQMTQSPSSLSASVGDRVTITCRASQDISNYLNWYQQKPGKVPKLLIYYTSRLHSGVPSRFSGSGSGTDFTLTISSLQPEDVATYYCQQGNTLPWTFGGGTKVEIK"
2,binds,"humanized antibody hu4B5-V11 (antibody, human IgG1, V domains shown) VH: QVQLKESGPGLVKPSETLSLTCTVSGFSLTSYGLHWFRQPPGKGLEWLGVIWSGGSTDYNAAFISRLTISKEDSKSQVSLKLSSVTAADTAVYYCAREEYDVWGQGTTVTVSS VL: DIQMTQSPSSLSASVGDRVTITCRASQDISNYLNWYQQKPGKVPKLLIYYTSRLHSGVPSRFSGSGSGTDYTLTISSLQPEDVATYYCQQGNTLPWTFGGGTKVEIK"
3,binds,"humanized antibody hu4B5-V20 (antibody, human IgG1, V domains shown) VH: QVQLQESGPGLVKPSETLSLTCTVSGFSLTSYGLHWIRQPPGKGLEWIGVIWSGGSTDYNAAFISRVTISKEDSKSQVSLKLSSVTAADTAVYYCAREEYDVWGQGTTVTVSS VL: DIQMTQSPSSLSASVGDRVTITCRASQDISNYLNWYQQKPGGVPKLLIYYTSRLHSGVPSRFSGSGSGTDYTLTISSLQQEDVATYYCQQGNTLPWTFGGGTKVEIK"
4,binds,"humanized antibody hu4B5-V5 (antibody, human IgG1, V domains shown) VH: QVQLKESGPGLVKPSETLSLTCTVSGFSLTSYGLHWFRQPPGKGLEWLGVIWSGGSTDYNAAFISRLTISKEDSKSQVSLKLSSVTAADTAVYYCAREEYDVWGQGTTVTVSS VL: DIQMTQSPSSLSASVGDRVTITCRASQDISNYLNWYQQKPGKVPKLLIYYTSRLHSGVPSRFSGSGSGTDFTLTISSLQPEDVATYYCQQGNTLPWTFGGGTKVEIK"
5,binds,"humanized antibody hu4B5-V13 (antibody, human IgG1, V domains shown) VH: QVQLKESGPGLVKPSETLSLTCTVSGFSLTSYGLHWFRQPPGKGLEWLGVIWSGGSTDYNAAFISRLTISKEDSKSQVSLKLSSVTAADTAVYYCAREEYDVWGQGTTVTVSS VL: DIQMTQSPSSLSASVGDRVTITCRASQDISNYLNWYQQKPGGVPKLLIYYTSRLHSGVPSRFSGSGSGTDYTLTISSLQQEDVATYYCQQGNTLPWTFGGGTKVEIK"
6,binds,"humanized antibody hu4B5-V9 (antibody, human IgG1, V domains shown) VH: QVQLQESGPGLVKPSETLSLTCTVSGFSLTSYGLHWIRQPPGKGLEWIGVIWSGGSTDYNAAFISRVTISKEDSKSQVSLKLSSVTAADTAVYYCAREEYDVWGQGTTVTVSS VL: DIQMTQSPSSLSASVGDRVTITCRASQDISNYLNWYQQKPGKVPKLLIYYTSRLHSGVPSRFSGSGSGTDYTLTISSLQPEDVATYYCQQGNTLPWTFGGGTKVEIK"
7,binds,"humanized antibody hu4B5-V17 (antibody, human IgG1, V domains shown) VH: QVQLQESGPGLVKPSETLSLTCTVSGFSLTSYGLHWIRQPPGKGLEWIGVIWSGGSTDYNAAFISRVTISKEDSKSQVSLKLSSVTAADTAVYYCAREEYDVWGQGTTVTVSS VL: DIQMTQSPSSLSASVGDRVTITCRASQDISNYLNWYQQKPGGVPKLLIYYTSRLHSGVPSRFSGSGSGTDYTLTISSLQPEDVATYYCQQGNTLPWTFGGGTKVEIK"
8,binds,"humanized antibody hu4B5-V24 (antibody, human IgG1, V domains shown) VH: QVQLQESGPGLVKPSETLSLTCTVSGFSLTSYGLHWIRQPPGKGLEWIGVIWSGGSTDYNAAFISRVTISKEDSKSQVSLKLSSVTAADTAVYYCAREEYDVWGQGTTVTVSS VL: DIQMTQSPSSLSASVGDRVTITCRASQDISNYLNWYQQKPGGTVKLLIYYTSRLHSGVPSRFSGSGSGTDYTLTISSLQPEDVATYFCQQGNTLPWTFGGGTKVEIK"
9,binds,"humanized antibody hu4B5-V12 (antibody, human IgG1, V domains shown) VH: QVQLKESGPGLVKPSETLSLTCTVSGFSLTSYGLHWFRQPPGKGLEWLGVIWSGGSTDYNAAFISRLTISKEDSKSQVSLKLSSVTAADTAVYYCAREEYDVWGQGTTVTVSS VL: DIQMTQSPSSLSASVGDRVTITCRASQDISNYLNWYQQKPGGVPKLLIYYTSRLHSGVPSRFSGSGSGTDYTLTISSLQPEDVATYYCQQGNTLPWTFGGGTKVEIK"
10,binds,"humanized antibody hu4B5-V14 (antibody, human IgG1, V domains shown, hu4B5 VH4 + hu4B5 VL4; human IgG1 / human Kappa constant regions) VH: QVQLKESGPGLVKPSETLSLTCTVSGFSLTSYGLHWFRQPPGKGLEWLGVIWSGGSTDYNAAFISRLTISKEDSKSQVSLKLSSVTAADTAVYYCAREEYDVWGQGTTVTVSS VL: DIQMTQSPSSLSASVGDRVTITCRASQDISNYLNWYQQKPGGTVKLLIYYTSRLHSGVPSRFSGSGSGTDYTLTISSLQPEDVATYFCQQGNTLPWTFGGGTKVEIK"
